Earlier results as cited in US20070197485A1, “Therapy and Use of Compounds in Therapy” (MAX-DELBRUECK-CENTRUM FUR MOLEKULARE MEDIZIN, priority 1999, published 2007).
At least one structure is not confirmed: it was looked up by name or label, or the drawing left a doubt.

Key:
[1] = patients with chronic hepatitis C, UDCA treatment; cited from earlier work
[2] = tested on: endotoxaemia in rats with obstructive jaundice; conditions: UDCA-treated rats with obstructive jaundice, LPS via the portal vein, cited from earlier work

For `C[C@H](CCC(=O)O)[C@H]1CC[C@H]2[C@@H]3[C@@H](O)C[C@@H]4C[C@H](O)CC[C@]4(C)[C@H]3CC[C@]12C` [UDCA, ursodeoxycholic acid], the “serum TNT levels” value [1] is given as “could not be shown to be affected”, the TNF-alpha levels [2] is given as “no effect” and the endotoxin concentration ([2]; intravenous UDCA) is given as “significantly lower”.
